Results from paper PMC13336771.
Results are given in words; binding and its absence hold for the method and conditions named. Binding seen in cells or lysates may run through a third protein. Some results given as binding are weak or reduced against the parent protein; the word gives no strength.

The chains behind the UniProt entries cited, without tags or fusion partners. Where a name states a change or a piece, a line headed by the entry shows the natural chain unless it says otherwise.
UniProt P08034: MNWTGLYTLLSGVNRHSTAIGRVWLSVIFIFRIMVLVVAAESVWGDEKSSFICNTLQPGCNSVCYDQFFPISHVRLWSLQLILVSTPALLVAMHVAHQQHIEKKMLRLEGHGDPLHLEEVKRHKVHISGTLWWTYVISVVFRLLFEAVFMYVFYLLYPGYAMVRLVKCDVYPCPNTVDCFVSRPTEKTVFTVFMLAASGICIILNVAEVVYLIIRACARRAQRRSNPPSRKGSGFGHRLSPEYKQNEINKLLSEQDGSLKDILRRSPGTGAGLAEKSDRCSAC

Molecular target: Connexin32 wild type (Cx32^WT), tagged with Clover or mRuby2 (UniProt P08034)
Experiment: FRET or BRET; acceptor depletion FRET; Clover donor and mRuby2 acceptor fused to the connexins; Clover fluorescence imaged before and after bleaching of mRuby2; dependence of FRET efficiency on acceptor level and donor to acceptor ratio

Row | Substance | binding
1 | Cx32^DN, dominant negative Connexin32 subunit (K124R, K104A), tagged with Clover or mRuby2 (from UniProt P08034 1-283) | binds
2 | Connexin32 wild type (Cx32^WT), tagged with Clover or mRuby2 (from UniProt P08034 1-283) | binds
